# Test results from PubChem BioAssay AID720504 (National Center for Advancing Translational Sciences (NCATS), 2013).
# By UniProt entry, the sequences of proteins in these tests, tags left out.
# UniProt P53350, whole entry, looked up: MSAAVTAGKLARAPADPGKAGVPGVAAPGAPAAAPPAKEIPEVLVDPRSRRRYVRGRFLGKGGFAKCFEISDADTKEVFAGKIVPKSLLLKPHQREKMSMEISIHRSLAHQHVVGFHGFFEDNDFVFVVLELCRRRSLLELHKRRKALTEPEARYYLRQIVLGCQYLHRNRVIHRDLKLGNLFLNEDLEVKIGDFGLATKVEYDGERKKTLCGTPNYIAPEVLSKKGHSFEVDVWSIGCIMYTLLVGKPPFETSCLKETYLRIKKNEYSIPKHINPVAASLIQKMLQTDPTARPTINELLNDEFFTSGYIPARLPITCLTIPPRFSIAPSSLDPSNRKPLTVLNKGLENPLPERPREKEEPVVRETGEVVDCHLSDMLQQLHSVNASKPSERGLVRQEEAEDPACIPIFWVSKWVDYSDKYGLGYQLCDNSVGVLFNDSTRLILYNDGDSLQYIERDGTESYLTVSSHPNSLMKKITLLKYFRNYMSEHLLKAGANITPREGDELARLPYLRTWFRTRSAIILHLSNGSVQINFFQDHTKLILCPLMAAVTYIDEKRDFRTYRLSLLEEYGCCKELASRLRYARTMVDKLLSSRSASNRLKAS
# Screen size: about 360,000 compounds; about 10,000 (2.8%) were called active. The shares of active, inactive and inconclusive entries below differ from those in the screen. Calls follow the shape of the dose curve; as a rule, active = well fitted inhibition curve with a large enough effect; inconclusive = small, poorly fitted or top-dose-only effect; inactive = flat fitted curve, though single readings scatter. Potencies beside an inconclusive call are fits to weak or partial responses and may not hold up.
# Biological target: Serine/threonine-protein kinase PLK1 (Homo sapiens) (UniProt P53350)
# Test: qHTS for Inhibitors of PLK1-PDB (polo-like kinase 1 - polo-box domain): Primary Screen; also: nearly all actives have a fitted effect of over 65% in size; as to max response, negative = inhibition: series mostly up to about 57 µM
# Conditions: Plk1 PBD binding of FITC phosphopeptide, fluorescence polarization
# % is scaled to controls: 0 for no effect and ±100 for the full control effect; potency is read from the fitted curve at half-maximal effect.
SMILES,Potency,"max response, negative = inhibition"
COC(=O)COc1ccc2cccc(-n3cnnn3)c2c1,"inconclusive: 26.7 µM [inhibitor, partial curve]",
O=C(/C=C\Nc1ccc2c(c1)OCO2)c1cccs1,"inconclusive: 6.7 µM [inhibitor, single point]",
COc1ccc(C(=O)OCn2nnc3ccccc3c2=O)cc1[N+](=O)[O-],"inconclusive: 23.8 µM [inhibitor, single point]",
C=CCNC(=O)c1ccc(-c2ccc([N+](=O)[O-])cc2)o1,"inconclusive: 29.9 µM [inhibitor, single point]",
CC(C)C(NC(=O)c1ccccc1F)C(=O)NCc1ccccc1 (stereo not given),active: 26.7 µM,
COc1ccccc1N1CCN(C(=O)c2ccoc2C)CC1,,inconclusive: -2.51% [inhibitor]
O=C(Oc1cc(=O)oc2c1c(=O)n1c3c(cccc23)CC1)c1ccccc1,"inconclusive: 26.7 µM [inhibitor, partial curve]",
Cc1ccccc1NC(=O)NCc1ccc2c(c1)OCO2,"inconclusive: 8.44 µM [inhibitor, partial curve]",
NC(=O)CCC(NS(=O)(=O)c1ccc(Cl)cc1)C(=O)NCC1CCCCC1 (stereo not given),active: 10.6 µM,
CC(Sc1nnc(C2CC2)n1C1CC1)C(=O)c1ccc(F)cc1 (stereo not given),"inconclusive: 33.6 µM [inhibitor, single point]",
COC(=O)CCCCC1=CCC2C(=O)C=C(O)C2C1 (stereo not given),"inconclusive: 29.9 µM [inhibitor, partial curve]",
O=C(NCc1ccccc1Cl)C1CCCN(S(=O)(=O)c2cccc3nsnc23)C1 (stereo not given),"inconclusive: 21.2 µM [inhibitor, partial curve]",
COC(=O)c1cn(C(=O)c2cc(C)cc(C)c2)c2ccccc12,active: 21.2 µM,
CC(=O)N1CCN=C1SCc1c(F)cccc1Cl,,inconclusive: -31.8% [inhibitor]
CCOC(=O)C1=C(C)Nc2ncnn2C1c1ccc(N(C)C)cc1 (stereo not given),"inconclusive: 8.44 µM [inhibitor, single point]",
O=C(Nc1ccc(O)cc1C(=O)O)c1cccc(Br)c1,"inconclusive: 33.6 µM [inhibitor, single point]",
CCNc1nc(NCC)n2c(SCC(=O)Nc3ccccc3F)nnc2n1,active: 11.9 µM,
Cc1ccc(NC(=O)Nc2nnc(-c3ccccc3)o2)cc1,,inactive: -4.41%
OC(c1cc(F)cc(Cl)c1)c1ncc(-c2ccc(Cl)cc2)[nH]1 (stereo not given),,inactive: -1.97%
Cc1ccc(-c2csc3ncn(-n4c(C)ccc4C)c(=O)c23)o1,"inconclusive: 26.7 µM [inhibitor, single point]",
N#Cc1ccc(OCC(=O)n2cc(C(=O)c3cc(Cl)cc(Cl)c3O)cn2)cc1,"inconclusive: 18.9 µM [inhibitor, partial curve]",
CCN1CCN(S(=O)(=O)c2ccc(OC)c(Br)c2)CC1,"inconclusive: 29.9 µM [inhibitor, partial curve, poor fit]",
CN(C)CCNc1ncnc2c1ncn2[C@H]1CN(Cc2cccnc2)C[C@@H](CO)O1,,inactive: -1.58%

SMILES,Potency,"max response, negative = inhibition"
Fc1cccc(NC(=S)Nc2ccc(Br)cc2)c1,,inconclusive: -33.5% [inhibitor]
COc1cc(OC)cc(C(=O)NNC(=O)C(CCC(N)=O)NS(=O)(=O)c2ccc(Cl)cc2)c1 (stereo not given),,inactive: 3.68%
Cc1ccc(Nc2nc(=O)c3cccnc3s2)cc1,,inactive: -4.6%
CCN1CCCC1CN(Cc1cc2ccc(C)cc2[nH]c1=O)C(=S)Nc1ccc(OC)cc1 (stereo not given),,inactive: -7.47%
CSc1ccccc1NC(=O)C1=CC(c2cccs2)=NS(=O)(=O)N1C,"inconclusive: 26.7 µM [inhibitor, partial curve]",
COc1ccc(-c2csc(NC(=O)c3ccc(C(C)(C)C)cc3)c2C(=O)O)cc1,"inconclusive: 23.8 µM [inhibitor, single point]",
CCOc1cc(N2CCOCC2)c(OCC)cc1NC(=O)COc1cccc(CC)c1,,inactive: -0.303%
CC1(C(=O)NS(=O)(=O)Cc2cccc(Cl)c2)CCN1C(=O)c1ccc(C2CCCCC2)cc1 (stereo not given),"inconclusive: 23.8 µM [inhibitor, partial curve]",
CCCn1nnnc1SCC(=O)NCc1cccs1,,inactive: -6.46%
Cc1cc(C)c(S(C)(=O)=O)c(Oc2ccccc2C)n1,active: 21.2 µM,
CSC1=NS(=O)(=O)c2c(C)nn(C)c2S1,active: 21.2 µM,
COc1ccc(C2NC(=O)C(C#N)=C(S)N2c2cccc(C)c2)cc1OC (stereo not given),"inconclusive: 29.9 µM [inhibitor, partial curve]",
Cc1ccccc1NC(=O)COC(=O)Cc1ccsc1,active: 26.7 µM,
Cc1cc(/C=N/Nc2ccc([N+](=O)[O-])cn2)c(C)n1-c1cccc(C(=O)O)c1,,inconclusive: -30.8% [inhibitor]
CCOC(=O)c1c(C(=O)OCC)c(C)n(N2C(=O)CSC2=S)c1C,"inconclusive: 33.6 µM [inhibitor, single point]",
CCCN(Cc1cc2ccc(C)cc2[nH]c1=O)C(=O)c1ccccn1,"inconclusive: 21.2 µM [inhibitor, partial curve]",
COC(=O)Nc1ccc(SCC(=O)c2ccccc2)cc1,,inconclusive: -32.8% [inhibitor]
CC(C)C[C@@H](CN)NC(=O)c1nc[nH]c1C(=O)N[C@@H](C)C(=O)CNC[C@H](C)NC(=O)c1nc[nH]c1C(=O)N[C@@H](CC(=O)O)C(=O)O,"inconclusive: 23.8 µM [inhibitor, single point]",
Cc1nn(-c2ccccc2)c2c1C(c1cccs1)C(C#N)=C(N)O2 (stereo not given),"inconclusive: 5.32 µM [inhibitor, partial curve]",
COc1ccc(C2C(C#N)=C(N)N(c3cccnc3)C3=C2C(=O)CCC3)cc1Cn1cc([N+](=O)[O-])cn1 (stereo not given),"inconclusive: 75.2 µM [inhibitor, partial curve]",
CCC(=O)OCC(=O)Nc1cc([N+](=O)[O-])ccc1OC,"inconclusive: 26.7 µM [inhibitor, partial curve]",
CC(=O)c1ccc2noc(-c3ccc(F)cc3)c2c1,"inconclusive: 23.8 µM [inhibitor, single point]",

# Reformatted bar-delimited: three of the compounds above.
SMILES | Potency | max response, negative = inhibition
COC(=O)COc1ccc2cccc(-n3cnnn3)c2c1 | inconclusive: 26.7 µM [inhibitor, partial curve] | 
O=C(/C=C\Nc1ccc2c(c1)OCO2)c1cccs1 | inconclusive: 6.7 µM [inhibitor, single point] | 
COc1ccc(C(=O)OCn2nnc3ccccc3c2=O)cc1[N+](=O)[O-] | inconclusive: 23.8 µM [inhibitor, single point] | 
